According to the supplement of paper PMC11438910:
The list shows a part of the results. Most of these values are background signal.

How the values were obtained:
Assay in all cases: fluorescence intensity of antibody binding to polysaccharide-coupled beads; higher = stronger binding
[1] = target: pneumococcal polysaccharide Pn11A
[2] = target: pneumococcal polysaccharide Pn11B
[3] = target: pneumococcal polysaccharide Pn11C
[4] = target: pneumococcal polysaccharide Pn11D
[5] = target: pneumococcal polysaccharide Pn11F
[6] = target: pneumococcal polysaccharide Pn12A
[7] = target: pneumococcal polysaccharide Pn12B
[8] = target: pneumococcal polysaccharide Pn12F
[9] = target: pneumococcal polysaccharide Pn13
[10] = target: pneumococcal polysaccharide Pn14
[11] = target: pneumococcal polysaccharide Pn15A
[12] = target: pneumococcal polysaccharide Pn15B
[13] = antibody concentration 81.7561 ng/mL
[14] = antibody concentration 437.17 ng/mL
[15] = antibody concentration 2337.65 ng/mL
[16] = antibody concentration 12500 ng/mL
[17] = antibody concentration 0.1 ng/mL
[18] = antibody concentration 0.534724 ng/mL
[19] = antibody concentration 2.8593 ng/mL
[20] = antibody concentration 15.2894 ng/mL

B1: 4-173.4 (protein)
chain 1: QLQLQESGPGLVKPSETLSLTCAVSGGSISSHYWSWIRQPPGKGLEWIGRFSAGGGSTDYNPSLKSRVTISTDTSKNQFTLNLNSVTAADTAVYYCTRGSYTSDYWGQGVLVTVSS
chain 2: QAALTQSPSVSGSPGQSVTISCTGTSSDIGGYIRVSWYQQHPGKAPKLMIYEVSKRPSGVSDRFSGSKSGNTASLTISGLQAEDEADYYCFSYARGDTVLLGGGTRLTVL
- fluorescence intensity [1, 13]: 28.8 MFI
- fluorescence intensity [1, 14]: 34 MFI
- fluorescence intensity [1, 15]: 35 MFI
- fluorescence intensity [1, 16]: 49.5 MFI
- fluorescence intensity [2, 17]: 25.2 MFI
- fluorescence intensity [2, 18]: 26.2 MFI
- fluorescence intensity [2, 19]: 23.5 MFI
- fluorescence intensity [2, 20]: 28.2 MFI
- fluorescence intensity [2, 13]: 28.5 MFI
- fluorescence intensity [2, 14]: 27 MFI
- fluorescence intensity [2, 15]: 26.5 MFI
- fluorescence intensity [2, 16]: 32 MFI
- fluorescence intensity [3, 17]: 19.2 MFI
- fluorescence intensity [3, 18]: 22.2 MFI
- fluorescence intensity [3, 19]: 21.2 MFI
- fluorescence intensity [3, 20]: 22.8 MFI
- fluorescence intensity [3, 13]: 24 MFI
- fluorescence intensity [3, 14]: 21.8 MFI
- fluorescence intensity [3, 15]: 25 MFI
- fluorescence intensity [3, 16]: 69 MFI
- fluorescence intensity [4, 17]: 23 MFI
- fluorescence intensity [4, 18]: 22.5 MFI
- fluorescence intensity [4, 19]: 21.8 MFI
- fluorescence intensity [4, 20]: 23.2 MFI
- fluorescence intensity [4, 13]: 22.5 MFI
- fluorescence intensity [4, 14]: 21.5 MFI
- fluorescence intensity [4, 15]: 25.5 MFI
- fluorescence intensity [4, 16]: 45 MFI
- fluorescence intensity [5, 17]: 13.5 MFI
- fluorescence intensity [5, 18]: 13 MFI
- fluorescence intensity [5, 19]: 14.8 MFI
- fluorescence intensity [5, 20]: 14.5 MFI
- fluorescence intensity [5, 13]: 15.5 MFI
- fluorescence intensity [5, 14]: 15.8 MFI
- fluorescence intensity [5, 15]: 15.8 MFI
- fluorescence intensity [5, 16]: 18 MFI
- fluorescence intensity [6, 17]: 13.5 MFI
- fluorescence intensity [6, 18]: 16 MFI
- fluorescence intensity [6, 19]: 15.5 MFI
- fluorescence intensity [6, 20]: 12.8 MFI
- fluorescence intensity [6, 13]: 16 MFI
- fluorescence intensity [6, 14]: 14.8 MFI
- fluorescence intensity [6, 15]: 17 MFI
- fluorescence intensity [6, 16]: 25 MFI
- fluorescence intensity [7, 17]: 15 MFI
- fluorescence intensity [7, 18]: 15.5 MFI
- fluorescence intensity [7, 19]: 14 MFI
- fluorescence intensity [7, 20]: 15.2 MFI
- fluorescence intensity [7, 13]: 16 MFI
- fluorescence intensity [7, 14]: 16.5 MFI
- fluorescence intensity [7, 15]: 17.8 MFI
- fluorescence intensity [7, 16]: 25 MFI
- fluorescence intensity [8, 17]: 18 MFI
- fluorescence intensity [8, 18]: 19.8 MFI
- fluorescence intensity [8, 19]: 19.5 MFI
- fluorescence intensity [8, 20]: 18.5 MFI
- fluorescence intensity [8, 13]: 19 MFI
- fluorescence intensity [8, 14]: 22.5 MFI
- fluorescence intensity [8, 15]: 22 MFI
- fluorescence intensity [8, 16]: 36.5 MFI
- fluorescence intensity [9, 17]: 19 MFI
- fluorescence intensity [9, 18]: 18 MFI
- fluorescence intensity [9, 19]: 19 MFI
- fluorescence intensity [9, 20]: 19.2 MFI
- fluorescence intensity [9, 13]: 18.5 MFI
- fluorescence intensity [9, 14]: 17.5 MFI
- fluorescence intensity [9, 15]: 20 MFI
- fluorescence intensity [9, 16]: 25 MFI
- fluorescence intensity [10, 17]: 13.5 MFI
- fluorescence intensity [10, 18]: 16 MFI
- fluorescence intensity [10, 19]: 14.8 MFI
- fluorescence intensity [10, 20]: 14.8 MFI
- fluorescence intensity [10, 13]: 15.5 MFI
- fluorescence intensity [10, 14]: 17.5 MFI
- fluorescence intensity [10, 15]: 22.5 MFI
- fluorescence intensity [10, 16]: 83.2 MFI
- fluorescence intensity [11, 17]: 12.5 MFI
- fluorescence intensity [11, 18]: 12 MFI
- fluorescence intensity [11, 19]: 12.5 MFI
- fluorescence intensity [11, 20]: 13 MFI
- fluorescence intensity [11, 13]: 11.8 MFI
- fluorescence intensity [11, 14]: 13.5 MFI
- fluorescence intensity [11, 15]: 13 MFI
- fluorescence intensity [11, 16]: 14 MFI
- fluorescence intensity [12, 17]: 18.5 MFI
- fluorescence intensity [12, 18]: 18.5 MFI
- fluorescence intensity [12, 19]: 17 MFI
- fluorescence intensity [12, 20]: 18.5 MFI
- fluorescence intensity [12, 13]: 18.2 MFI
- fluorescence intensity [12, 14]: 22.5 MFI
